At least one compound was matched to its structure with a doubt left.
Key:
[1] = test system: ovalbumin-specific CD4+ T-cells; assay: Adoptive T-cell transfer without fingolimod: antigen-specific CD4+ T-cells in draining lymph nodes and lungs; assay type: in vivo; conditions: 7 days after T-cell injection; MF59-treated mice, retinoic acid versus vehicle
[2] = Mucosal antibody responses after MF59-adjuvanted immunisation; assay type: in vivo, mice; conditions: day 56; 3 MF59-adjuvanted doses; retinoic acid versus plain vehicle
Experimental: To assess antibody responses mice were injected with 3 doses of either ovalbumin or H56 (a […] antigen) on days 0, 21, and 42, adjuvanted with MF59. The day before and after each immunization one group of mice were given retinoic acid whereas control mice received a plain vehicle instead. Serum IgG and vaginal wash IgA antibody responses were assessed at day 56. IgA-secreting cells were also measured in the bone marrow.

[3] = test system: CCR9 on CD4+ T-cells expressing the DO-11.10 T-cell receptor; assay: Adoptive T-cell transfer with fingolimod: CCR9 expression and proliferation of DO-11.10 CD4+ T-cells in draining lymph nodes; assay type: in vivo; conditions: mice given MF59-adjuvanted ovalbumin; RA versus plain vehicle
Experimental: Reference describes experimental protocols for studying the homing of T-cells in mice who receive retinoic acid. In brief, T-cells specific for test antigens (in the present case, ovalbumin) are adoptively transferred into mice and their behaviour in response to specific treatments is studied. This general experimental procedure was used to assess the effect of MF59 and retinoic acid on CCR9 expression in T-cells, and on their in vivo migration.
Mice were injected intravenously with 2×10^6 CD4^+ T-cells which react to ovalbumin peptides (DO-11.10 cells). These cells were labelled with CFSE before being administered. At around the same time they were given either retinoic acid or a plain vehicle. The next day they received MF59-adjuvanted ovalbumin, and the next day they again received RA or plain vehicle, plus fingolimod (which blocks the egress of lymphocytes from lymph nodes). A few days later their draining lymph nodes were drained and CD4^+ T-cells expressing the DO-11.10 T-cell receptor were tested for CCR9 expression by FACS. The CFSE label was used to trace cell proliferation.

CC1=C(/C=C/C(C)=C/C=C/C(C)=C/C(=O)O)C(C)(C)CCC1 [retinoic acid]
levels of ovalbumin-specific T-cells in lungs [1]: about twice as high | proportion of ovalbumin-specific T-cells in the draining lymph nodes [1]: essentially the same | Serum IgG titres against ovalbumin or H56 [2]: essentially the same | T cell proliferation (CFSE labelling) [3]: no real difference

Reference: patent US11197826B2, “Oil-in-water emulsions including retinoic acid” (NOVARTIS AG, priority 2015, dated 2021)
